Laboratory results from publication PMC7563795.
No constants are given. Whether binding was seen depends on the method and setting. In cells and extracts the contact can be indirect. Some results given as binding are weak or reduced against the parent protein; the word gives no strength. Tags and fused reporters may be left off the sequences shown.

Chains of the proteins cited; added tags and fusions are not shown.
UniProt A0A8V0X930: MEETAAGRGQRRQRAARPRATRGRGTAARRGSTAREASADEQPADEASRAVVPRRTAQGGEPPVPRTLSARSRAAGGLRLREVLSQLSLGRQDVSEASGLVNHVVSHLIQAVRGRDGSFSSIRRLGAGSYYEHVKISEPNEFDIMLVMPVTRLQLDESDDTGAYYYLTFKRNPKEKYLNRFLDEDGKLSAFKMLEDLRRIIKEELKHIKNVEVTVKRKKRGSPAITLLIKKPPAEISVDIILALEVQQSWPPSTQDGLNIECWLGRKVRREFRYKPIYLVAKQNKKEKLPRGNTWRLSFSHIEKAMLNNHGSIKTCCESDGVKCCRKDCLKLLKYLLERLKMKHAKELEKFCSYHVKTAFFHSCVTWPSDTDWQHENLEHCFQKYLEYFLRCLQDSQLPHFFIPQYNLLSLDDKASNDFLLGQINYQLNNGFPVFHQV

Biological target: T1, chicken STING with C-terminal 3FLAG tag (chSTING-3FLAG) (chicken) (UniProt E1C7U0)
T1 sequence: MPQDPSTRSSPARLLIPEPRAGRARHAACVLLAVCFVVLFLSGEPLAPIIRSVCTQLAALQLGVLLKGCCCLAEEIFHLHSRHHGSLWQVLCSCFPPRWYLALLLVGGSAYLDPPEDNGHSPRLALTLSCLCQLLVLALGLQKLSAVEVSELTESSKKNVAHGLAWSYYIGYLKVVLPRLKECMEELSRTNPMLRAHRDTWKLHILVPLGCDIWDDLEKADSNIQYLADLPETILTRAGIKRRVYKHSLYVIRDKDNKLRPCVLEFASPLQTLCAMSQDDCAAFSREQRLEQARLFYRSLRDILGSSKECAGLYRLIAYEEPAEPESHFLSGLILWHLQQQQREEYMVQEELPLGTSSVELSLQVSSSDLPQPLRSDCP
Assay: co-IP; chcGAS-HA and chSTING-FLAG co-transfected into 293T cells (6-well plate); cleared lysates incubated with 1 ug anti-FLAG antibody at 4 °C overnight, then Protein A/G PLUS-Agarose; Western blot with anti-FLAG and anti-HA mAbs

“chicken cGAS with C-terminal 2HA tag (chcGAS-2HA) (from UniProt A0A8V0X930 1-438)” was tested, and the binding was “binds”.
